In publication PMC12097095:
No constants are given. Whether binding was seen depends on the method and setting. For part of these data: Binding seen in cells or lysates may run through a third protein. Some entries that bind do so weakly or less than the wild type. For part of these data: Where a sequence is shown, tags or fusion partners need not be part of it.

Sequences of proteins named here, by UniProt entry; tags and fusion partners are left off. Residues count along the entry.
UniProt O35607, residues 27-1038: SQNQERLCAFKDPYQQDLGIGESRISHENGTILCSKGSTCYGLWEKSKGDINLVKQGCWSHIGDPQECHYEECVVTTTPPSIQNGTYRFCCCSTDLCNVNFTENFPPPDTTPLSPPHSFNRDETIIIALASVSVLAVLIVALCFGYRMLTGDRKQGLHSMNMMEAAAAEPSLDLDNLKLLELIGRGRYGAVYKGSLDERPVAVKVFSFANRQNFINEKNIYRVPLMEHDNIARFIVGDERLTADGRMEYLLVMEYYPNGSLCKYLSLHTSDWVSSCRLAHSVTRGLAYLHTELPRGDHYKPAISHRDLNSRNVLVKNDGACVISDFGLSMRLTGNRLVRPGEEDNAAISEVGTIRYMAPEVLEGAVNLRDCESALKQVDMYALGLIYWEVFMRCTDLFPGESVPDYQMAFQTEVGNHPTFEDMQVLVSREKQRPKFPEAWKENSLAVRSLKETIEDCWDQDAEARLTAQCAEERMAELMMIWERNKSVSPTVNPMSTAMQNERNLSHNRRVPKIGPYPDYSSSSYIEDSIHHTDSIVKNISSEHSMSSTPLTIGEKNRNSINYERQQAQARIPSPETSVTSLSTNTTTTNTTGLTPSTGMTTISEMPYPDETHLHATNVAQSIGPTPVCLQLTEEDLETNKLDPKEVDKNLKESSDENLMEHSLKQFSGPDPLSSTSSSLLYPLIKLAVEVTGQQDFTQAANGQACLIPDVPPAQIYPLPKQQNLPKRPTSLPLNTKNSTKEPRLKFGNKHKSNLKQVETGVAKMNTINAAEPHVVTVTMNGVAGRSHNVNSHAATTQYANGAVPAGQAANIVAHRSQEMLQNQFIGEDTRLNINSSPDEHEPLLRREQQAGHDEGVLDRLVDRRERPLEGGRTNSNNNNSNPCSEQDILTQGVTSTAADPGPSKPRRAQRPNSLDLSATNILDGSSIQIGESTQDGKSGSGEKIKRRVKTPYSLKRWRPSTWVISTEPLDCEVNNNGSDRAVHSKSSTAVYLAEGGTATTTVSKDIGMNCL
UniProt P36895, residues 24-532: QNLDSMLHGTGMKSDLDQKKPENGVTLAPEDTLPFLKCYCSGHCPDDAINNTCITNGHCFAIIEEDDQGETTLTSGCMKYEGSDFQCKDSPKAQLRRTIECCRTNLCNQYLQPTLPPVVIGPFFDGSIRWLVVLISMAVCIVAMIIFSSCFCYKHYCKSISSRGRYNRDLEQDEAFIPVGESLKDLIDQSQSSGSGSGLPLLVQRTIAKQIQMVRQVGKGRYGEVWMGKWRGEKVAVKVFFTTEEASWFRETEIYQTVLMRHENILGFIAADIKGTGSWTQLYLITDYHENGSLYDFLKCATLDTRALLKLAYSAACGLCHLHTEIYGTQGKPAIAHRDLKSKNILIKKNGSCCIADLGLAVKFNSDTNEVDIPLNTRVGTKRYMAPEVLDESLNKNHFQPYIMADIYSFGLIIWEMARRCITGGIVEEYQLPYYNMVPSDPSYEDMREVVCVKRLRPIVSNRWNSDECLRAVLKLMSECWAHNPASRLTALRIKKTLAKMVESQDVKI

Assays:
BMPR2‐FLAG (mouse) [1] = target: BMPR2‐FLAG (mouse) (UniProt O35607); assay: co-IP; HEK293 cells transfected to express BMPR2-FLAG and ALK3-His; NP-40 buffer lysate; anti-Flag or anti-His antibody, Protein A agarose beads; immunoblot
[2] = target: BMPR2 expressed alone on transfected HEK293 cells (mouse) (UniProt O35607); assay: flow cytometry on cells; 293 cells transiently transfected with TGF-β superfamily receptor cDNA (one receptor, or Bmpr2 with a type I receptor), incubated with GDF10-Fc or Fc in 5% fetal bovine serum at 4 °C for 1 hour; detected with Alexa Fluor 647 goat anti-human IgG; percentage of expression+ binding+ cells; only the binder purified
[3] = target: BMPR2/ALK3 heterodimeric receptor, both co-expressed on transfected HEK293 cells (mouse) (UniProt O35607+P36895); assay: as above
[4] = target: heterodimeric fusion protein BMPR2:ALK3‐Fc (mouse) (UniProt O35607+P36895); assay: SPR; Biacore; GDF10 with BMPR2:ALK3-Fc (ECDs of mouse BMPR2 and ALK3), dose-dependent; who was immobilised is not stated; both purified
BMPR2‐FLAG (mouse) [5] = target: BMPR2‐FLAG (mouse) (UniProt O35607); assay: co-IP; HEK293 cells transfected to express C-terminal FLAG-tagged BMPR2 and FLAG-tagged ALK3, incubated with GDF10-Fc; 500 µg protein immunoprecipitated with Flag-conjugated beads overnight at 4 °C; blots with anti-Flag and anti-human Fc; only the binder purified
FLAG‐tagged ALK3 (mouse) = FLAG‐tagged ALK3 (mouse) (UniProt P36895); assay: as above

Measured: binding

ALK3‐His (from UniProt P36895 24-532) (receptor)
binds: BMPR2‐FLAG (mouse) [1]

B1: recombinant GDF10‐Fc protein (containing the Fc fragment and the mature region of GDF10) (Fc fusion, UniProt P97737 367-476)
chain: QWDEPRVCSRRYLKVDFADIGWNEWIISPKSFDAYYCAGACEFPMPKIVRPSNHATIQSIVRAVGIVPGIPEPCCVPDKMNSLGVLFLDENRNAVLKVYPNMSVETCACR
not listed: BMPR2‐FLAG (mouse) [1]
binds: all other assays above
